# Where “and” joins values, the source holds several entries; their conditions need not be identical. Equal values may be shown once. About 3,700 (0.93%) of roughly 400,000 compounds were called active. This list was built around the results that the source calls inconclusive (neither active nor inactive); the mix of calls is not that of the screen. The call rests on the fitted dose curve; in most records, active means well fitted inhibition curve with a large enough effect; inconclusive means small, poorly fitted or top-dose-only effect, or another doubt; inactive means no such curve, though single readings can be large or run the other way. Where the call is inconclusive, the potency comes from a doubtful curve fit.
# Sequences of proteins named here, by UniProt entry; tags and fusion partners are left off.
# UniProt P11473, whole entry, looked up: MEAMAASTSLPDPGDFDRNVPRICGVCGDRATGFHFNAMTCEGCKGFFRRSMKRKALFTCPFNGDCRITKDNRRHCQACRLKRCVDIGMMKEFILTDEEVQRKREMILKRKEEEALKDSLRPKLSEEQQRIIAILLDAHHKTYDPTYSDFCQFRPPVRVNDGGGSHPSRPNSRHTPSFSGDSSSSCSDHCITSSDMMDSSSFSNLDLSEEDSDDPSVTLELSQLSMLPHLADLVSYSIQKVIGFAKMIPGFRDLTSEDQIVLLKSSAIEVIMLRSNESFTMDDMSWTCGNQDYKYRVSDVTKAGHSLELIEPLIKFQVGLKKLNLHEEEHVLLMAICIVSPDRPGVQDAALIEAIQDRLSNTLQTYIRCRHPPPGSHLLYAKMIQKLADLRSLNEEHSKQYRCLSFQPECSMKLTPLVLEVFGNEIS
# Target: Vitamin D3 receptor (Homo sapiens) (UniProt P11473)
# Test: Inhibitors of the vitamin D receptor (VDR): qHTS
# Conditions: VDR-SRC2-3 peptide fluorescence polarization, 2 h; max response, negative = inhibition: hits give low values
# Method in brief: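 The screen uses fluorescence polarization to detect compounds that interfere with recruitment of the SRC2-3 coactivator peptide to VDR; plates are read after 2 h at room temperature.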
# On the % scale 0 is the no-effect control and ±100 the full control effect; potency means the concentration at half of the fitted maximal effect.
SMILES,Potency,"max response, negative = inhibition"
CN(C)CC1CCC/C(=C/c2ccc(Cl)cc2)C1=O (configuration not stated),active: 79.4 µM,
Cc1ccc(O)c(NC(=O)CCS(=O)(=O)c2nc(-c3ccc4c(c3)OCO4)cc(C(F)(F)F)n2)c1,active: 50.1 µM,
CCN(CC)C(=O)Cn1cc(S(=O)(=O)CC(=O)N2CCCCCC2)c2ccccc21,"inconclusive: 79.4 µM [inhibitor, partial curve, poor fit]",
COC(=O)c1c(NC(=O)/C=C/C(=O)O)sc(C)c1-c1ccc(C)c(C)c1,active: 89.1 µM,
OCCC1CN(Cc2ccc(F)cc2)CCN1CCCc1ccccc1 (configuration not stated),"inconclusive: 89.1 µM [inhibitor, single point]",
Cc1ccc2nc3c(nc2c1C)C(O)=C3O,"inconclusive: 89.1 µM [inhibitor, single point]",
COc1ccccc1NC(CC(=O)c1ccccc1)C(=O)OCC(=O)c1ccc(C)c(C)c1 (configuration not stated),"inconclusive: 70.8 µM [inhibitor, partial curve]",
CCOC(=O)C1CCN(C(=O)c2cc(COc3ccc(F)cc3F)on2)CC1,"inconclusive: 20 µM [inhibitor, partial curve, poor fit]",
Cc1cccc(C(=O)n2c(=S)nc3ccccn32)c1,active: 79.4 µM,
Cc1ccc2c(c1)c1c(c(=O)n(-c3ccccc3C)c(=O)n1CC(=O)NCC1CCCO1)n2C (configuration not stated),,inactive: 9.02% and inactive: -5.79%
Cn1c(=O)[nH]c(=O)c2c1[nH]c(=S)n2CCCc1ccccc1,active: 39.8 µM,
Cc1ccc(N(CC(=O)NCc2ccc(F)cc2)C(=O)c2csnn2)c(C)c1,"inconclusive: 89.1 µM [inhibitor, partial curve, poor fit]",
O=[N+]([O-])c1cccc(-c2ccc3nnc(SCc4ccccn4)n3n2)c1,"inconclusive: 25.1 µM [inhibitor, partial curve, poor fit]",
CC1Cc2ccccc2N1C(=O)COC(=O)CCc1nc2ccccc2c(=O)[nH]1 (configuration not stated),"inconclusive: 31.6 µM [inhibitor, single point]",
O=C(CCN1CCC(c2ccccc2)C1)c1cccs1 (configuration not stated),"inconclusive: 79.4 µM [inhibitor, single point]",
Cc1ccc(CN2CC(C(=O)N(CC(C)C)c3c(N)n(Cc4ccccc4)c(=O)[nH]c3=O)CC2=O)cc1 (configuration not stated),,inactive: -3.91%
O=C(CCC(=O)N(CC(=O)NC1CCCC1)Cc1cccs1)Nc1nccs1,"inconclusive: 89.1 µM [inhibitor, single point]",
Cc1cc(=O)c(C(=O)N[C@@H](C(=O)N[C@@H]2C(=O)N3C(C(=O)O)=C(CSc4nnnn4C)CS[C@H]23)c2ccc(O)cc2)c[nH]1,"inconclusive: 39.8 µM [inhibitor, partial curve]",
CCN(CC)S(=O)(=O)c1ccc(OC)c(NC(=S)Nc2cccc(C)c2C)c1,"inconclusive: 39.8 µM [inhibitor, single point]",
COc1ccccc1N(O)C1CC(=O)N(c2ccc(Br)cc2)C1=O (configuration not stated),active: 50.1 µM,
O=C(NNc1ccc([N+](=O)[O-])cc1)Nc1ccccc1,"inconclusive: 50.1 µM [inhibitor, partial curve]",
O=c1c2nncn2c2cccnc2n1CCNc1ncc(C(F)(F)F)cc1Cl,"inconclusive: 39.8 µM [inhibitor, single point]",
CCOCC(=O)Nc1nnc(C2CCCCC2)s1,"inconclusive: 0.631 µM [inhibitor, full curve, poor fit]",

# Rewritten as tab-separated lines: part of the list above
SMILES	Potency	max response, negative = inhibition
Cc1ccc(O)c(NC(=O)CCS(=O)(=O)c2nc(-c3ccc4c(c3)OCO4)cc(C(F)(F)F)n2)c1	active: 50.1 µM	
Cc1ccc(N(CC(=O)NCc2ccc(F)cc2)C(=O)c2csnn2)c(C)c1	inconclusive: 89.1 µM [inhibitor, partial curve, poor fit]	
CC1Cc2ccccc2N1C(=O)COC(=O)CCc1nc2ccccc2c(=O)[nH]1 (configuration not stated)	inconclusive: 31.6 µM [inhibitor, single point]	

# The results go on:

SMILES,Potency,"max response, negative = inhibition"
CCN1CCN(C(=O)Nc2cc(Cl)ccc2OC)CC1,,inactive: 0.102%
CCN(c1ccc(C(=O)CSc2nnc(C3CC3)n2C2CC2)cc1)S(C)(=O)=O,"inconclusive: 100 µM [inhibitor, single point]",
O=C(Nc1nnc(COc2ccc(Cl)cc2)s1)C1CCCO1 (configuration not stated),,inactive: -8.85%
NC(=S)NN=C1CCCCCCCCCC1,"inconclusive: 89.1 µM [inhibitor, single point]",
Nc1nc(Nc2ccccc2)nc2ccccc12,,inactive: -2.06%
CCOc1ccc(-c2csc(Cn3c(CN4CCN(C)CC4)nc4ccccc4c3=O)n2)cc1,"inconclusive: 89.1 µM [inhibitor, single point]",
CNC(=O)C1CCC(Cn2c(=O)c3sccc3n(CC(=O)Nc3cc(F)ccc3F)c2=O)CC1 (configuration not stated),,inactive: 3.2%
COc1ccccc1NC(=O)C1=C(C)Nc2nc(SCc3ccccc3Cl)nn2C1c1ccncc1 (configuration not stated),,inactive: 1.26%
CC(=O)c1c(C)oc2ccc(N(C(=O)c3ccncc3)S(=O)(=O)c3ccc(C)cc3C)cc12,,inactive: -7.86%
O=C(CCC(=O)Nc1ccc(F)cc1)N/N=C/c1cccc(Br)c1,,inactive: 18.1%
CCc1ccc(C2C(C#N)=C(N)SC(N)=C2C#N)s1,"inconclusive: 89.1 µM [inhibitor, single point]",
COc1ccc(S(=O)(=O)N2CCN(Cc3cc4c(cc3Br)OCCO4)CC2)cc1,"inconclusive: 89.1 µM [inhibitor, single point]",
O=[N+]([O-])c1ccccc1/C=C/C=N/Nc1nc(N2CCCCC2)nc(N2CCCCC2)n1,"inconclusive: 89.1 µM [inhibitor, single point]",
O=C(CSc1nnc(CNc2ccc(F)cc2)o1)N1CCCc2ccccc21,"inconclusive: 25.1 µM [inhibitor, single point]",
COc1ccc(Cl)cc1NC(=O)C1CCN(S(=O)(=O)c2ccc(F)cc2)CC1,"inconclusive: 89.1 µM [inhibitor, single point]",
O=C(COC(=O)c1cccnc1Cl)NC(=O)c1ccc(OC(F)F)cc1,"inconclusive: 89.1 µM [inhibitor, partial curve, poor fit]",
Nc1nc2n(n1)C(c1ccc(F)cc1)CC(c1ccc(F)cc1)N2 (configuration not stated),,inactive: 4.37%
Cc1cc(C)cc(C(=O)O/N=C(\N)c2ccc(Br)cc2)c1,"inconclusive: 10 µM [inhibitor, partial curve]",
CC(C)C1=CC2=CCC3[C@@](C)(CCC[C@@]3(C)C(=O)O)C2CC1 (some centres not stated),"inconclusive: 28.2 µM [inhibitor, partial curve]",
O=C(CSc1ccc(-c2nc3ccccc3[nH]2)cn1)N1CCN(C(=O)c2ccco2)CC1,"inconclusive: 56.2 µM [inhibitor, partial curve, poor fit]",
COc1ccc(C2CC(=O)N3CN(Cc4ccco4)CSC3=C2C#N)cc1 (configuration not stated),active: 28.2 µM,
CCOc1ccc(/C=N/n2nnnc2N)cc1OCC,"inconclusive: 79.4 µM [inhibitor, single point]",
Cc1ccc(OCc2n[nH]c(=S)n2-c2ccccc2)cc1,"inconclusive: 17.8 µM [inhibitor, full curve, poor fit]",

SMILES,Potency,"max response, negative = inhibition"
O=C(c1noc2c1CCCC2)N1CCC(CO)(Cc2ccccc2Cl)CC1,"inconclusive: 89.1 µM [inhibitor, single point]",
CCN(C(=O)COc1ncnc2sccc12)c1ccccc1,,inactive: 4.78%
COc1ccc(-c2cc3ccc(O)c(CN4CCCCC4C)c3oc2=O)cc1OC (configuration not stated),,inactive: 6.71%
Cc1cc(Nc2ccc(O)cc2)ccc1N,"inconclusive: 56.2 µM [inhibitor, partial curve, poor fit]",
CCC(NC(=O)c1cc(COc2ccc(OC)cc2Cl)on1)c1ccncc1 (configuration not stated),"inconclusive: 22.4 µM [inhibitor, single point]",
Nc1ccc2nc(-c3ccccc3)c(-c3ccccc3)nc2c1,"inconclusive: 63.1 µM [inhibitor, partial curve, poor fit]",
O=C1C(Cl)=C(N2CCCCC2)C(=O)C(Cl)=C1c1cnc(N2CCCCC2)s1,"inconclusive: 63.1 µM [inhibitor, partial curve, poor fit]",
COc1cc(C(=O)NCc2ncccc2C)ccc1OC1CCN(C(C)=O)CC1,"inconclusive: 89.1 µM [inhibitor, single point]",
Brc1ccc(CN2CCSCC2)cc1,,inactive: 17.9%
CCNc1cc2c(cc1O)CCC1C2CCC2(C)C(O)CCC12 (configuration not stated),active: 79.4 µM,
O=C(CSc1nnc(CN2CCOCC2)n1-c1ccc(Cl)cc1)N1CCc2ccccc21,active: 79.4 µM,
C=CCN1C(=O)/C(=C/C=C2/N(CC)c3ccc(S(=O)(=O)N(C)C)cc3N2CC)SC1=S,"inconclusive: 5.01 µM [inhibitor, full curve, poor fit]",
CCS(=O)(=O)Nc1c(C(=O)O)[nH]c2ccccc12,,inactive: -0.735%
CCOC(=O)C1=C(C)N=c2s/c(=C\c3cccc(OCC(=O)O)c3)c(=O)n2C1c1ccccc1OC (configuration not stated),"inconclusive: 70.8 µM [inhibitor, single point]",
COc1ccc(C(=O)NC(=S)NC2CCCCC2)cc1,"inconclusive: 89.1 µM [inhibitor, partial curve, poor fit]",
Cc1cccc(NC(=S)N(CCCN2CCCC2)Cc2cccn2Cc2ccc(Cl)cc2)c1,,inactive: -18.5%
COc1cc(/C=N/N2C(=O)CSC2=S)cc(Br)c1O,"inconclusive: 89.1 µM [inhibitor, single point]",
CCc1nnc(SC(CC)C(=O)Nc2cc(C)ccc2C)c2cc3occc3n12 (configuration not stated),,inactive: 0%
CC(=O)Nc1cccc(C(=O)OCc2csc(CC(=O)Nc3ccccc3C)n2)c1,"inconclusive: 28.2 µM [inhibitor, partial curve, poor fit]",
COC(=O)c1scc(C#N)c1N/N=C(\C#N)S(=O)(=O)c1ccc(Cl)cc1,"inconclusive: 79.4 µM [inhibitor, single point]",

# From PubChem BioAssay AID504847 (National Center for Advancing Translational Sciences (NCATS), 2011)
